In publication PMC10605449 (Biosensors, 2023):
These are yes or no findings as the source states them, for the method shown. Some binding calls cover weakened binding; strength is not graded here. Where a sequence is shown, tags or fusion partners need not be part of it.

Chains of the proteins cited; added tags and fusions are not shown. Lines headed by an entry give the natural chain unless they say otherwise; changes in a name come on top.
UniProt Q9Y265: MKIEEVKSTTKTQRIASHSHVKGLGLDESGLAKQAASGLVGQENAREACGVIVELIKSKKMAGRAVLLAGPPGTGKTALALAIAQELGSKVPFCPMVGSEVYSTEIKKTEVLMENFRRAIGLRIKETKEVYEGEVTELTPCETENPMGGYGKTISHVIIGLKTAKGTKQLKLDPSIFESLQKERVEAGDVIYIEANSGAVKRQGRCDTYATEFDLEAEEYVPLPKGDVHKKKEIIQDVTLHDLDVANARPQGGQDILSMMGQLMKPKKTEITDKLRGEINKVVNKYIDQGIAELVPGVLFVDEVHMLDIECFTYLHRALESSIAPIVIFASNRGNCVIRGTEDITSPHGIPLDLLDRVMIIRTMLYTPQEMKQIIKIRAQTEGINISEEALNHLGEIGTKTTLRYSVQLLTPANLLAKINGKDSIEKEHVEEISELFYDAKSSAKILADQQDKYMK

Assays:
[1] = molecular target: T1, Cellular biotinylated H/ACA ribonucleoprotein complex subunit Dyskerin pseudouridine synthase 1, His6-DKC1(1-514)-AviTag (UniProt O60832); assay: SPR; data not shown; as a5, in the presence of saturating concentrations of the non-hydrolysable ATPγS; only the binder purified
T1 sequence (chain, biotin on the AviTag (BirA, in the cells)): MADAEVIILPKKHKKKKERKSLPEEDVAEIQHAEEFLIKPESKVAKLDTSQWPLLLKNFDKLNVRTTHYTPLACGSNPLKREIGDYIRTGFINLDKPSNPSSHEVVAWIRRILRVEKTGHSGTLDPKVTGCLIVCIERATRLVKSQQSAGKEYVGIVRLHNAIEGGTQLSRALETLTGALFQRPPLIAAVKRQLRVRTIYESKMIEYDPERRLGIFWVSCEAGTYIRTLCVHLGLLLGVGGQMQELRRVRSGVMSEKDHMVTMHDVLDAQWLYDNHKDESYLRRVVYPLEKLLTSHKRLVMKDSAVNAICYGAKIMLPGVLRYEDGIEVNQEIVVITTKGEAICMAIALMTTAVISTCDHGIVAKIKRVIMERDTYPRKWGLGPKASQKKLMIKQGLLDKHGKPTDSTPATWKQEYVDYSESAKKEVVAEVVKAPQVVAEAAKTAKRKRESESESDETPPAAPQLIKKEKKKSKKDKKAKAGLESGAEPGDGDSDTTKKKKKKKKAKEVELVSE

[2] = molecular target: T1, Cellular biotinylated H/ACA ribonucleoprotein complex subunit Dyskerin pseudouridine synthase 1, His6-DKC1(1-514)-AviTag; assay: SPR; data not shown; as a5, injection of the ATP hydrolysis mutant complex over DKC1(1-514) captured from lysate; only the binder purified

“His6-RuvBL1(1-456)/RuvBL2(1-463) (from UniProt Q9Y265 1-456; Q9Y230 1-463) (complex)” was tested, and the binding [1] was “binds”.
In the case of “His6-RuvBL1_D302N/RuvBL2_D299N (from UniProt Q9Y265 1-456; Q9Y230 1-463) (complex)”, the binding [2] is reported as “binds”.
